# Library screening results

Mtb growth Cornell: 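Whole-cell assay for inhibitors of Mycobacterium tuberculosis growth, labelled Cornell in the record; the read-out is not stated. The concentration is filed as 10 mM, unlikely as a test dose, so the dose is not known. The record gives no direction; compounds strong in two other growth screens of this library score well above the rest, so higher reads as stronger inhibition. Size under these conditions: about 53,000 compounds, about 900 of them at 50% or above in at least one test.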
Mtb heat-shock: 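Assay on Mycobacterium tuberculosis, filed only as a heat shock assay from Cornell; the read-out is not stated. The concentration is filed as 10 mM, unlikely as a test dose, so the dose is not known. Direction is inferred from retests: higher values go with stronger inhibition. Size under these conditions: about 69,000 compounds, about 930 of them at 50% or above in at least one test.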

Each number is a percent effect as filed. How 0% and 100% were set is not recorded. Most values in the screen are low, and negative values occur. The compounds are a random part of those screened. A dash means the value is not listed here; it may have been measured.

SMILES	Mtb growth Cornell	Mtb heat-shock
CC(NCc1cnc(C2CCC2)s1)c1cccc(-n2ccnc2)c1 (centres undefined)	-	-15.65%
Clc1ccc(N2CCC(OCC3CCCCO3)CC2)nc1 (centres undefined)	-	17.13%
CN(C)[C@@H]1CCN(C(=O)c2cccn2C)[C@H]1Cc1cnn(C)c1.O=C(O)C(F)(F)F	-22.73%	3.038%
CCn1nc(C)c2ccn(CC(=O)NCC3CCCO3)c(=O)c21 (centres undefined)	12.9%	17.74%
Cc1nc2c(c(NC3CC3)n1)CCN(C(=O)C(C)(C)O)CC2	-4.024%	10.05%
O=C(O)C(F)(F)F.O=C(O)C(F)(F)F.O=C(O)C(F)(F)F.[H][C@@]12CN(Cc3cccnc3)CCO[C@]1([H])CN(Cc1sccc1C)C2	-19.16%	-33.46%
CNC(=O)c1nc2c(s1)CCN(C(=O)c1cccnc1)CC2.O=C(O)C(F)(F)F	9.235%	1.592%
Cc1nc(C)c(CCN2CCC(Oc3ccccc3F)CC2)s1	50.26%	6.97%
CCC1CN(CC(=O)NC(C)C)CCO1 (centres undefined)	8.046%	-13.89%
CC(=O)NCC1CCN(C(=O)NCCc2ccc(Cl)s2)CC1	-9.817%	-14.24%
c1cc(CN2CCc3cncnc3C2)c2c(c1)OCCO2	-	11.71%
Cc1ccccc1N1CCCN(C(=O)c2nn(C)cc2Cl)CC1	-5.373%	18.38%
CCn1cc(S(=O)(=O)N2CCCC3(CC=CNC3=O)C2)c(C)n1 (centres undefined)	3.443%	0.5126%
[H][C@]12CC[C@]([H])(CN(C(=O)CSCC3CC3)C1)N(Cc1ccccn1)C2=O	-	8.226%
COc1ccc(C)cc1-c1csc(Cn2ccc(=O)[nH]c2=O)n1	21.61%	-19%
CN(Cc1ccccc1)C(=O)[C@@H]1Cc2[nH]cnc2CN1C	-	-24.16%
CN1CCN(c2ccc(Cl)cc2NC(=O)c2ccco2)CC1	19.22%	20.11%
[H][C@@]12CN(c3ncnc4[nH]ccc34)C[C@]1(C(=O)O)CN(CC1CC1)C2=O	-11.29%	16.92%
COc1ccc(CCC(=O)N2CCNCC2C(=O)N2CCCC2)cc1 (centres undefined)	-	12.1%
CCN(CC(C)C#N)C(=O)c1cccc(COc2ccc(C)nc2)c1 (centres undefined)	28.14%	-8.391%
c1cncc(CNc2cccc(OCCN3CCCCC3)c2)c1	20.88%	-7.283%
[H][C@@]12CN(C3CCOCC3)C[C@]1([H])OCC(=O)N2Cc1ccccn1	-13.06%	-9.63%
CNS(=O)(=O)c1ccc(C(=O)Nc2ccc3c(c2)C(=O)NC3)cc1	-53.36%	-5.989%
N#CCCN(CCC#N)C(=O)c1ccc(OCC2CC2)cc1	10.84%	94.69%
CCOc1ccccc1CNC(=O)Cn1ccc2c(C)nn(C)c2c1=O	20.5%	9.293%
CCn1ncc(CN2CCC(O)(Cn3ccc4ncccc43)CC2)c1C	18.01%	-4.039%
[H][C@@]12CN(c3ccncc3)C[C@]1([H])N(CCCc1ccc(F)cc1)C(=O)O2	8.702%	-3.258%
CCN(CC1CCCN(CCc2cccc(OC)c2)C1)C(=O)CO (centres undefined)	20.92%	-7.956%
CN(CCC(N)=O)Cc1cc(Br)cs1	-1.475%	5.462%
CCS(=O)(=O)N1CCc2c(CN(C)Cc3ccco3)cncc2C1.Cl.Cl	15.79%	7.211%
c1cc(CN2CCC(c3ccncc3)CC2)cc(Cn2cccn2)c1	25.67%	5.674%
O=C(c1cn(CC(=O)N2CCCC2)c2ccccc12)C1CC1	15.66%	0.1872%
Cc1nn(C)c(Oc2cccnc2)c1NC(=O)C1CCCO1 (centres undefined)	-23.87%	9.172%
CCOCC(=O)N1CCC2(CC1)CC(c1ccccc1)CO2 (centres undefined)	15.72%	16.4%
O=C(O)C(F)(F)F.c1cnc(NCc2nnn3c2CN(Cc2cccs2)CCC3)nc1	19.41%	-24.52%
CC(=O)N1CC(=O)N(c2ccccc2)CC12CCN(Cc1ccsc1)C2 (centres undefined)	2.924%	-28.34%
CCOCc1cnc2n1CCN(C(=O)Cc1ccccn1)C2C.O=C(O)C(F)(F)F (centres undefined)	15.7%	-9.641%
CN(C)C(=O)c1cc2c(nc1NCC1CC1)CCN(CC1CC1)CC2	-	-17.91%
CCC[C@H]1CN(CCCO)C[C@@H]1NC(=O)Cn1cc(C)cn1	4.194%	-0.5034%
CCn1c(C(=O)N2CCN(C(=O)COC)CC2)cc2ccccc21	-8.73%	-6.521%
[H][C@@]12CO[C@@H](CN3CCN(C)CC3)[C@]1([H])CCN(Cc1ccncc1)C2	-	-15.56%
Cc1cccc(C)c1OCCNC(=O)C(C)n1cncn1 (centres undefined)	-	-12.33%
Cn1cc(C2COC3(CCN(C(=O)c4ccc(F)cc4)CC3)C2)cn1 (centres undefined)	14.68%	3.052%
Cc1ccc(-c2ncc(C(=O)NCCNc3ncccn3)s2)c(C)c1	45.01%	28.73%
CCc1nc(C)c(C(C)N(C)CCc2ccncc2)s1 (centres undefined)	-23.75%	-2.544%
Cc1nc2n(n1)CC(NCC(=O)N(C)Cc1cccs1)CC2 (centres undefined)	-23.07%	-11.09%
Cc1cnn(CC2CCCCN2C(=O)c2n[nH]c3ccccc23)c1 (centres undefined)	-	-20.91%
c1cnc(-c2nc(CN3CCN(CC4CC4)CC3)cs2)nc1	-	-1.749%
Cc1cc2ccccc2n1CC(=O)Nc1ccnn1CC1CCOC1 (centres undefined)	21.11%	12.39%
CC(C)N1CCN(C(=O)c2[nH]nnc2Nc2ccccc2F)CC1	-18.2%	-26.76%
NC(=O)CN1CCC(C(=O)NCc2ccc3nonc3c2)CC1	6.177%	21.56%
CC(=O)N(Cc1ncc(C)o1)C1CCN(Cc2cccc(C#N)c2)C1 (centres undefined)	-23.39%	5.422%
NC(=O)c1ccc(NC(=O)Cn2cc(-c3ccccc3)ncc2=O)cc1	-13.98%	24.52%
CCOCc1cnc2n1CCN(C(=O)c1ccccc1)C2C (centres undefined)	-22.66%	53.26%
Cl.O=C(NCCn1nc(C2CCNC2)c2cccnc21)c1ccccc1 (centres undefined)	-53.35%	-5.993%
CN(C)CC1COCCN1C(=O)c1ccccc1C(=O)c1ccccc1.O=CO (centres undefined)	-23.46%	-20.84%
Cc1cc(NC(=O)N2CCOCC2)nn1-c1cccc(Cl)c1	-	-2.207%
CCc1nc(CNCC2CCCN2c2cc(NC)ncn2)cs1 (centres undefined)	15.03%	-11.18%

Some entries from above, unchanged:

- CCC[C@H]1CN(CCCO)C[C@@H]1NC(=O)Cn1cc(C)cn1 : Mtb growth Cornell: 4.194%; Mtb heat-shock: -0.5034%
- Cc1nc2c(c(NC3CC3)n1)CCN(C(=O)C(C)(C)O)CC2 : Mtb growth Cornell: -4.024%; Mtb heat-shock: 10.05%
- CN(C)C(=O)c1cc2c(nc1NCC1CC1)CCN(CC1CC1)CC2 : Mtb heat-shock: -17.91%
- N#CCCN(CCC#N)C(=O)c1ccc(OCC2CC2)cc1 : Mtb growth Cornell: 10.84%; Mtb heat-shock: 94.69%
- CCn1nc(C)c2ccn(CC(=O)NCC3CCCO3)c(=O)c21 (centres undefined) : Mtb growth Cornell: 12.9%; Mtb heat-shock: 17.74%
- CN(C)[C@@H]1CCN(C(=O)c2cccn2C)[C@H]1Cc1cnn(C)c1.O=C(O)C(F)(F)F : Mtb growth Cornell: -22.73%; Mtb heat-shock: 3.038%
- [H][C@@]12CN(c3ccncc3)C[C@]1([H])N(CCCc1ccc(F)cc1)C(=O)O2 : Mtb growth Cornell: 8.702%; Mtb heat-shock: -3.258%

The values are deposited in ChEMBL (CHEMBL3988442, “University of Dundee, Small-Polar-MMV Screening Library” (2021)).